Assay results as given in PubChem BioAssay (Tox21).
Where “and” joins values, the source holds several entries; their conditions need not be identical. Identical values can stand only once. This list was built around the results that the source calls inconclusive (neither active nor inactive); the mix of calls is not that of the screen. A potency beside an inconclusive call is a rough fit, not a confirmed value. More than one record can exist for a structure, and the calls need not agree. Calls of active or inactive are those of the source. Unless noted, the call rests on the fitted dose curve.

Protein sequences, listed by entry. Tags and fused reporters are not part of them. Lines headed by an entry give the natural chain unless they say otherwise; changes in a name come on top.
UniProt P19793: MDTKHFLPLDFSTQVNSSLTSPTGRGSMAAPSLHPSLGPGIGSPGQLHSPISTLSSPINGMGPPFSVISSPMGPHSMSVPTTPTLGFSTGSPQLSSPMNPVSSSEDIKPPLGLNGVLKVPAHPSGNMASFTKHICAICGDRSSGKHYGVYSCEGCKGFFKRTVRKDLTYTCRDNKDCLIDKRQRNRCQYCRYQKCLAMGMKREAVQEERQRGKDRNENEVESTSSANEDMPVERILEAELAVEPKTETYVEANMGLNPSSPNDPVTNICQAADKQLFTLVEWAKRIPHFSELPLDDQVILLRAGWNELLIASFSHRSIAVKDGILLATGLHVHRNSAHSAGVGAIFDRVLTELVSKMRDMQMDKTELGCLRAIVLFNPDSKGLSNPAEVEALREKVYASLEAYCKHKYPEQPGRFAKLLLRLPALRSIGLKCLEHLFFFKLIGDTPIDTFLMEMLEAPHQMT

biological target: Retinoic acid receptor RXR-alpha (Homo sapiens) (UniProt P19793); assay: qHTS assay to identify small molecule agonists of the RXR signaling pathway (AID 1159527); settings: HEK293T RXRa-UAS-bla, beta-lactamase ratio, 16 h; activation: at 76.8 µM (top of the series) unless noted; further: nearly all actives have a fitted effect of over 35% in size
Procedure, shortened: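 Beta-lactamase reporter assay, agonist format. Engineered HEK 293T line, charcoal-stripped FBS at 2%, overnight (16 hr) exposure, fluorescence at 460 and 530 nm after 405 nm excitation.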
On the % scale 0 is the no-effect control and ±100 the full control effect; potency means the concentration at half of the fitted maximal effect.

| SMILES | Potency | activation |
| --- | --- | --- |
| O=C(Nc1ccccc1)c1cc([N+](=O)[O-])ccc1Cl | inconclusive: 21.9 µM [rising, partial curve] |  |
| Nc1nc2c(ncn2COC(CO)CO)c(=O)[nH]1 | inactive |  |
| COC(=O)[C@@H]1[C@H]2C[C@H]3c4[nH]c5ccccc5c4CCN3C[C@@H]2CC[C@@H]1O | inactive |  |
| N[C@@H](Cc1c[nH]c2ccc(O)cc12)C(=O)O | inactive |  |
| NCCS | inactive |  |
| COC(=O)c1cccnc1 | inconclusive: 61.6 µM [activator, partial curve, poor fit] |  |
| Cc1ccc(=O)n(-c2ccccc2)c1 | inactive |  |
| CC(C)(C)C(=O)Oc1ccc(S(=O)(=O)Nc2ccccc2C(=O)NCC(=O)O)cc1 | inactive |  |
| CC[C@H](NC(C)C)[C@H](O)c1ccc(O)c2[nH]c(=O)ccc12 | inconclusive: 26.8 µM [fluorescent] |  |
| Nc1ccccc1[N+](=O)[O-] |  | inconclusive: 24.3% |
| c1cnc2cc3c(cc2n1)C1CNCC3C1 | inactive |  |
| O=C(O)c1cn(C2CC2)c2cc(Cl)c(F)cc2c1=O |  | inconclusive: 5.4% [at 35.3 µM] |
| CCCCCCCCN(C)C | inconclusive: 24.5 µM [activator] |  |
| CCCCC1C(=O)N(c2ccccc2)N(c2ccccc2)C1=O | inactive |  |
| CN(C)C(=O)C(CCN1CCC(O)(c2ccc(Cl)cc2)CC1)(c1ccccc1)c1ccccc1 |  | inconclusive: -24.7% [at 35.3 µM] |
| CC(=O)/C=C/C1C(C)=CCCC1(C)C (centres undefined) |  | inconclusive: 15.2% |
| O=C(O)CCCC(=O)O | inactive |  |
| CC1=NS(=O)(=O)c2cc(Cl)ccc2N1 | inactive |  |
| CCC(C(=O)OCCN1CCOC(c2ccccc2)C1C)c1ccccc1 (centres undefined) | inactive |  |
| CCCCOC(=O)CC#N |  | inconclusive: -34.9% |
| O=C(O)CCc1nc2ccccc2[nH]1 |  | inconclusive: 12.1% [at 35.3 µM] |
| Cc1nc2sccn2c(=O)c1CCN1CCC(=C(c2ccc(F)cc2)c2ccc(F)cc2)CC1 | inconclusive: 6.01 µM |  |
| CC(=O)Oc1ccc(C)cc1 | inactive |  |
| OC(CCN1CCCCC1)(c1ccccc1)C1CCCCC1 (centres undefined) | inconclusive: 15.1 µM [rising, partial curve, poor fit] |  |
| CCCCC(=O)O | inactive |  |
| OC(CN1CCC(Cc2ccc(F)cc2)CC1)c1ccc(Cl)cc1 (centres undefined) |  | inconclusive: -22.9% [at 35.3 µM] |
| C=Cc1c(C)c2cc3[nH]c(cc4nc(cc5nc(cc1[nH]2)C(C)=C5CCC(=O)O)C(CCC(=O)O)=C4C)c(C)c3C=C | inactive |  |
| Cn1c(=O)c2[nH]cnc2n(C)c1=O | inconclusive: 27.9 µM [activator, partial curve] and active: 13.8 µM |  |
| c1ccc(-c2ccc(-c3ccccc3)cc2)cc1 |  | inconclusive: 0.887% [at 15.8 µM] |

test system: not listed separately; assay: qHTS assay to identify small molecule agonists of the RXR signaling pathway - cell viability counter screen (AID 1159529; active means well fitted curve in the direction sought with a large enough effect in the repeat runs; inconclusive means weak or mixed curves; inactive means no such curve, though single readings can be large; an effect the other way counts as inactive or inconclusive; further: nearly all actives have a fitted effect of over 50% in size); settings: RXR-alpha-bla HEK293T viability, CellTiter-Glo, 16 h; series mostly up to 76.8 µM
Procedure, shortened: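 Same-well viability check after the LiveBLAzer FRET read: CellTiter-Glo added, luminescence measured after 30 min at room temperature. Reporter HEK 293T cells had been treated with compounds for 16 hr following a 5 hr preincubation.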

| SMILES | Potency |
| --- | --- |
| O=C(O)c1ccccc1-c1ccc(C(F)(F)F)cc1 | inactive |
| Cc1cc(C)c(C=O)c(C)c1 | inactive |
| CN(C)CCCOc1nn(Cc2ccccc2)c2ccccc12 | inconclusive: 2.13 µM [cytotoxic, partial curve] |
| CCCCCCCCC/C=C/CC1CC(=O)OC1=O (centres undefined) | inconclusive: 19.6 µM [cytotoxic, partial curve, poor fit] |
| O=C(O)[C@@H](O)[C@H](O)[C@H](O)[C@@H](O)C(=O)O | inconclusive: 3.01 µM [rising, full curve, poor fit] |
| O=C(NN1CCCC1)NS(=O)(=O)c1ccc(Cl)cc1 | inconclusive: 0.0006 µM [rising, full curve, poor fit] |
| CN1[C@@H]2CC[C@@H]1CC(OC(=O)C(CO)c1ccccc1)C2 (some centres undefined) | inconclusive: 2.96 µM [cytotoxic, partial curve, poor fit] |
| Cc1c(N)cccc1[N+](=O)[O-] | inactive |
| O=S1(=O)CC=CC1 | inactive |
| CC(C)NC[C@@H](O)COc1cccc2ccccc12 | inconclusive: 0.0006 µM [rising, full curve, poor fit] |

test system: not listed separately; assay: qHTS assay to identify small molecule agonists of the retinoic acid receptor (RAR) signaling pathway (AID 1159553; active means well fitted curve in the direction sought with a large enough effect in the repeat runs; inconclusive means weak or mixed curves; inactive means no such curve, though single readings can be large; an effect the other way counts as inactive or inconclusive); settings: C3RL4 RARE luciferase reporter, agonist, 6 h; activation: at 73.3 µM (top of the series) unless noted
Procedure, shortened: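 In this cell-based screen, 1,000 C3RL4 cells per well were cultured overnight, dosed with test chemicals in DMSO for 6 hr, and assessed for RARE luciferase luminescence.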

| SMILES | activation | Potency |
| --- | --- | --- |
| COC(=O)c1cccnc1 | inconclusive: 8.24% [phenotype inactive] |  |
| CC[C@H](NC(C)C)[C@H](O)c1ccc(O)c2[nH]c(=O)ccc12 | inconclusive: -1.14% [phenotype inactive] |  |
| Nc1ccccc1[N+](=O)[O-] | inconclusive: 7.74% [phenotype inactive] [at 94.8 µM] | inconclusive: 54.5 µM [activator, partial curve, poor fit] |
| O=C(O)c1cn(C2CC2)c2cc(Cl)c(F)cc2c1=O |  | inactive |
| CCCCCCCCN(C)C |  | inactive |
| CC(=O)/C=C/C1C(C)=CCCC1(C)C (centres undefined) |  | inactive |
| O=C(O)CCCC(=O)O | inconclusive: 0.0504% [phenotype inactive] |  |
| CCC(C(=O)OCCN1CCOC(c2ccccc2)C1C)c1ccccc1 (centres undefined) |  | inactive |
| CCCCOC(=O)CC#N |  | inconclusive: 32.1 µM [inhibitor, full curve] |
| O=C(O)CCc1nc2ccccc2[nH]1 |  | inactive |
| CC(=O)Oc1ccc(C)cc1 |  | inactive |
| CCCCC(=O)O | inconclusive: 4.35% [phenotype inactive] |  |
| OC(CN1CCC(Cc2ccc(F)cc2)CC1)c1ccc(Cl)cc1 (centres undefined) |  | inconclusive: 33.5 µM [inhibitor, single point] |
| c1ccc(-c2ccc(-c3ccccc3)cc2)cc1 |  | active: 0.996 µM |
